Measured values: publication PMC8682772, “Negative feedback for DARS2–Fis complex by ATP–DnaA supports the cell cycle-coordinated regulation for chromosome replication” (Nucleic Acids Research, 2021)
Numbering of substitutions follows the chain as printed. For at least one entry, the source does not settle the construct or the ends of the probe. The comparison behind a weaker result is the experiment's own reference, which may not be listed here. Where a protein sequence is shown, tags need not be part of it. For some assays here: At least one verdict rests on a figure or table, not on a statement of the authors.

Columns and labels:
DnaA (Escherichia coli) = molecular target: T1, DnaA (Escherichia coli) (UniProt P03004); test: EMSA; settings: ATP, EMSA: 20 mM HEPES-KOH pH 7.6, 80 mM KCl, 1 mM EDTA, 4 mM DTT, 5 mM Mg acetate, 0.1 mg/ml BSA, 10% glycerol, 3 uM ATP or ADP, lambda-DNA competitor, 35 nM DNA, 30 C 5 min, recombinant protein
T1 sequence (looked up, limits assumed): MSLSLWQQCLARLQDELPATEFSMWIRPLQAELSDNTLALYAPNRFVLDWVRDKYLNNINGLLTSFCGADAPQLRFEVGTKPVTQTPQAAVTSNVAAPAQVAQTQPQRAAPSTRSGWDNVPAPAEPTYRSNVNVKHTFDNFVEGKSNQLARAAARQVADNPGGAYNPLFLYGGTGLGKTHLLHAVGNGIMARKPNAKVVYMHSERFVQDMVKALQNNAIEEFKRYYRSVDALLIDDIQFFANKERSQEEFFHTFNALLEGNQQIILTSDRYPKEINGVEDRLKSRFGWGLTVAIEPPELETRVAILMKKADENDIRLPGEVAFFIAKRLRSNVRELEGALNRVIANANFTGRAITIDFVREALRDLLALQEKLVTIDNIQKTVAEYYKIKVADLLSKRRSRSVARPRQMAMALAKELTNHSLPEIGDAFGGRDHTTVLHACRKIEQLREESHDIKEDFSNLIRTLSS

[1] = molecular target: T2, DnaA R285A (Escherichia coli) (UniProt P03004); test: EMSA; settings: ATP, largely monomer, as ADP-DnaA; EMSA: 20 mM HEPES-KOH pH 7.6, 80 mM KCl, 1 mM EDTA, 4 mM DTT, 5 mM Mg acetate, 0.1 mg/ml BSA, 10% glycerol, 3 uM ATP or ADP, lambda-DNA competitor, 35 nM DNA, 30 C 5 min; recombinant protein
T2 sequence (looked up, limits assumed): T1 sequence (looked up, limits assumed) with R285A

“GGGTTGGCGAAAGATCAACCAATGCCGTATTTATCCACAGAACGCGCCGCCA (double strand) [FBS2-5 subDnaA box V-a]”: binds more weakly (DnaA (Escherichia coli); all oligomers considerably inhibited).

“TCATTAACTGTGAATGATCGGTGATCCTGGACCGTATAAGCTGGGATCAGAATGA (double strand) [oriC R5MI2 WT]”: binds (DnaA (Escherichia coli); reference for complexes up to C4).

“GGGTTGGCGGGGGGCCGACCGGCGCCGCATTTATCCACAGAACGCGCCGCCA (double strand) [FBS2-5 subDnaA box V-abc]”: binds more weakly (DnaA (Escherichia coli); no oligomers, box V binding retained).

“GGGTTGGCGAAAGATCAACCAATGCCGTATTTATCCACAGAATGTGCCACTA (double strand) [FBS2-5 WT]”: binds more weakly [1].

“GGGTTGGCGAAAGATCAACCGGCGCCGCATTTATCCACAGAATGTGCCACTA (double strand) [FBS2-5 subDnaA box V-b]”: binds more weakly (DnaA (Escherichia coli); trimer formation considerably inhibited).
